Laboratory results reported in the supplement of paper PMC12067093, “Discovery and optimisation of a covalent ligand for TRIM25 and its application to targeted protein ubiquitination” (Chemical Science, 2025).
The other results are listed elsewhere or left out.

Each target was assayed with Cc1cc(ccc1-c1ccccc1)C(=O)N1CCCN(CC1)C(=O)CCl [compound 10] (assay: probe-labelled cysteine peptide fold change vs DMSO (competition) (log2 fold change); higher = less target engagement (more negative = stronger competition)). Conditions: 10 µM; THP-1; incubation time: 4 h.
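Also: competitive profiling in live THP-1 cells: cysteine peptides tagged with an iodoacetamide desthiobiotin (IA-DTB) probe, intensity after compound treatment relative to DMSO-treated cells.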

Row | Target | probe-labelled cysteine peptide fold change
1 | SH3GL1_Q99961_277_PREPFDLGEPEQSNGGFPCTTAPK (UniProt Q99961) | -0.116
2 | SIN3A_Q96ST3_1063_KAEQLMSDENCFK (UniProt Q96ST3) | 0.12
3 | SIRT6_Q8N6T7_141_LAELHGNMFVEECAK (UniProt Q8N6T7) | -0.0707
4 | SFMBT1_Q9UHJ3_659_IGRPPGGHSNLACALKK (UniProt Q9UHJ3) | -0.175
5 | SLC25A10_Q9UBX3_240_GEYQGVFHCAVETAK (UniProt Q9UBX3) | 0.0083
6 | SFMBT2_Q5VUG0_560_CVLVLK (UniProt Q5VUG0) | 0.0305
7 | SIRT1_Q96EB6_574_GCMEEKPQEVQTSR (UniProt Q96EB6) | -0.17
8 | SLC25A36_Q96CQ1_67_VVSPGPLHCLK (UniProt Q96CQ1) | 0.149

Same assay, conditions: 50 µM; THP-1; incubation time: 4 h

Row | Target | probe-labelled cysteine peptide fold change
9 | SF3A3_Q12874_408_LHGLNINYNCEICGNYTYR (UniProt Q12874) | -0.0252
10 | SF3A3_Q12874_145_YLDLHDCYLK (UniProt Q12874) | 0.0982
11 | SETDB1_Q15047_582_LFYLPHVCSYTCLSR (UniProt Q15047) | -0.112
12 | SF3A3_Q12874_437_CLGIPNTAHFANVTQIEDAVSLWAK (UniProt Q12874) | 0.15
13 | SF3B1_O75533_796_QCCGTDGVEANYIK (UniProt O75533) | 0.0169
14 | SLC25A13_Q9UJS0_503_DIPFSAIYFPCYAHVK (UniProt Q9UJS0) | 0.0697
15 | SETD7_Q8WTS6_303_ANHSFTPNCIYDMFVHPR (UniProt Q8WTS6) | 0.0544
16 | SIAE_Q9HAT2_367_MPNTFMAVAMDLCDRDSPFGSIHPR (UniProt Q9HAT2) | -0.465
17 | SLC25A10_Q9UBX3_181_GALVTVGQLSCYDQAK (UniProt Q9UBX3) | 0.264
18 | SF3A2_Q15428_56_NHLGSYECK (UniProt Q15428) | -0.417
19 | SETDB1_Q15047_731_GVFINTGPEFLVGCDCK (UniProt Q15047) | -0.149
20 | SLC22A15_Q8IZD6_438_NVGLGTCSMFSR (UniProt Q8IZD6) | -0.0742
21 | SETDB1_Q15047_819_CLDDIAK (UniProt Q15047) | -0.0967
22 | SIRT5_Q9NXA8_293+303_FHFQGPCGTTLPEALACHENETVS (UniProt Q9NXA8) | 0.3
23 | SGTA_O43765_148_LGNYAGAVQDCER (UniProt O43765) | -0.104
24 | SLC25A10_Q9UBX3_240_LMNSKGEYQGVFHCAVETAK (UniProt Q9UBX3) | -0.449
25 | SFMBT1_Q9UHJ3_325_SFVCHADSPGIFPVQWSLK (UniProt Q9UHJ3) | -0.00543

Row | Target | probe-labelled cysteine peptide fold change
26 | SGSM3_Q96HU1_517_DEHCWVGELNGLR (UniProt Q96HU1) | 0.255
27 | SKIV2L_Q15477_877_VFTTLVLCDKPLSQDPQDR (UniProt Q15477) | 0.0839
28 | SLC25A3_Q00325-2_75_YYALCGFGGVLSCGLTHTAVVPLDLVK (UniProt Q00325) | -0.282
29 | SLC30A1_Q9Y6M5_437_SSVVPCELACR (UniProt Q9Y6M5) | -0.404
30 | SKIV2L_Q15477_1014_KLEELIQGAQCVHSPR (UniProt Q15477) | 0.063
31 | SGK3_Q96BR1_308_DLKPENILLDSVGHVVLTDFGLCK (UniProt Q96BR1) | -0.702
32 | SKIV2L_Q15477_913_LFLPEGPCDHTVVK (UniProt Q15477) | 0.0129
33 | SKP2_Q13309_327_NDCFQEFFQLNYLQHLSLSR (UniProt Q13309) | -0.141
34 | SLC27A2_O14975_149_SLLHCFQCCGAK (UniProt O14975) | 0.0964
35 | SKIV2L_Q15477_877_VFTTLVLCDK (UniProt Q15477) | 0.412
36 | SLC27A3_Q5K4L6_411_FSAGQFWEDCQQHR (UniProt Q5K4L6) | 0.589
37 | SKIV2L_Q15477_50_AVELGCTGHWELLNLPGAPESSLPHGLPPCAPDLQQEAEQLFLSSPAWLPLHGVEHSAR (UniProt Q15477) | -0.0279
38 | SH3BP5L_Q7L8J4_178_NRLDPTWQEMLNHATCK (UniProt Q7L8J4) | -0.0342
39 | SETD2_Q9BYW2_836_ISSNSFMNVHLESKPVICDSR (UniProt Q9BYW2) | 0.0162
40 | SH3GL1_Q99961_277_PREPFDLGEPEQSNGGFPCTTAPK (UniProt Q99961) | -0.627
41 | SIN3A_Q96ST3_1063_KAEQLMSDENCFK (UniProt Q96ST3) | -0.177
42 | SIRT6_Q8N6T7_141_LAELHGNMFVEECAK (UniProt Q8N6T7) | -0.0804
